Data: patent US7994094B2, “N-pyridylpiperidine compound, method for producing the same, and pest control agent” (Otsuka Agritechno Co., Ltd., priority 2006, dated 2011)
Some of these results come from one statement about several compounds together.

Tested on: Two-spotted spider mites (eggs)
Assay: Ovicidal test on two-spotted spider mites (Test Example 2)
Type: in vivo, Tetranychus urticae
Settings: 500 ppm sprayed on kidney bean leaf; six days after the spraying
Experimental: A kidney bean leaf (about 3.5×4.5 cm) was placed on the sufficiently soaked non-woven fabric. Female adult two-spotted spider mites (about 5 mites) were released on the leaf, and the leaf was placed in a thermostatic chamber (25±2° C., 16L8D). […] The ovicidal rate of the two-spotted spider mites was determined six days after the spraying.

Compound | ovicidal rate of the two-spotted spider mites
FC(F)(F)c1ccc(N2CCC(Oc3cc(C(F)(F)F)nn3-c3ccccc3)CC2)nc1 [1a-60] | at least 50%
Fc1cc(F)cc(-c2cc(O[C@H]3C[C@H]4CC[C@@H](C3)N4c3ccc(C(F)(F)F)cn3)n(CC3OCCO3)n2)c1 [1d-42, 3α-[1-(1,3-dioxolan-2-yl)methyl-3-(3,5-difluorophenyl)pyrazol-5-yloxy]-N-[5-(trifluoromethyl)-2-pyridyl]-8-azabicyclo[3.2.1]octane] | at least 50%
